{"sequences": {"note": "Amino acid sequences for entries named in this document (tags omitted). Residues count along the entry.", "UniProt Q96EB6, 2-747 limits assumed": "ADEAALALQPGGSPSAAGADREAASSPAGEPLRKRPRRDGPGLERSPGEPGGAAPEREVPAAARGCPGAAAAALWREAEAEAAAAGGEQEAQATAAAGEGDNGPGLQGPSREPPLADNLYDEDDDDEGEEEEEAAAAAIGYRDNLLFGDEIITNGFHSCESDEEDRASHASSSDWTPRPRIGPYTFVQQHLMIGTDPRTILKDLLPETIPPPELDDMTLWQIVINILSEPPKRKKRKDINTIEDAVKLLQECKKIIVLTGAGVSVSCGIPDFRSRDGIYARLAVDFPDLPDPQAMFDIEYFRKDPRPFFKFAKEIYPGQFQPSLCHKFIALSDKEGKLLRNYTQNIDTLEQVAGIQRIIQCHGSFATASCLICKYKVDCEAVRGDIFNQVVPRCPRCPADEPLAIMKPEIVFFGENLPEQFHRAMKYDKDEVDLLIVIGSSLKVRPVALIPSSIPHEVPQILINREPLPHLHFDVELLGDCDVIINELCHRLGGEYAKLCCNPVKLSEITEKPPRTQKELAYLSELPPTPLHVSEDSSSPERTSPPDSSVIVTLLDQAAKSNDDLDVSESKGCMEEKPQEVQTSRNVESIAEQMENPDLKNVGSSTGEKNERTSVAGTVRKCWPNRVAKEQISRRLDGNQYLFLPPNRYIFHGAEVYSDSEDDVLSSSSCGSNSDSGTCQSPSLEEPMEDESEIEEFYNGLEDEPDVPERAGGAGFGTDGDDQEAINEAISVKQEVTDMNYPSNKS"}, "source": "paper PMC6925144", "about": "“A prospective compound screening contest identified broader inhibitors for Sirtuin 1” (Scientific Reports, 2019)", "note": "Over roughly 3,200 compounds, “TSA(with NAD+) / Primary screening (TSA) / delta Tm (K)” has its median near -0.04; the highest 2% begin near 0.37. Some of the results follow."}
{"target": "NAD-dependent deacetylase Sirtuin 1 (human, UniProt Q96EB6)", "assay": "primary screen, delta tm", "design": "single well (n = 1, as 'the same TSA')", "details": "10 µM", "units": {"TSA(with NAD+) / Primary screening (TSA) / delta Tm (K)": "K"}}
{"smiles": "O=C(CSCC(=O)Nc1cccc2ccccc12)Nc1ccccc1F", "TSA(with NAD+) / Primary screening (TSA) / delta Tm (K)": -0.16}
{"smiles": "Cc1cccc(-c2ccc(C(=O)N3CCc4ccccc4C3)c(=O)[nH]2)c1", "TSA(with NAD+) / Primary screening (TSA) / delta Tm (K)": 0.06}
{"smiles": "NC(=S)c1ccc(C(=O)NC2CCC(O)CC2)cc1", "note": "(stereo not drawn)", "TSA(with NAD+) / Primary screening (TSA) / delta Tm (K)": -0.18}
{"smiles": "O=S(=O)(NCCNS(=O)(=O)c1cccs1)c1cccs1", "TSA(with NAD+) / Primary screening (TSA) / delta Tm (K)": -0.09}
{"smiles": "COc1ccc2[nH]c3c(N(C)C)ncnc3c2c1", "TSA(with NAD+) / Primary screening (TSA) / delta Tm (K)": -0.14}
{"smiles": "CSc1cccc(N2CC(C(=O)OCC(N)=O)CC2=O)c1", "note": "(stereo not drawn)", "TSA(with NAD+) / Primary screening (TSA) / delta Tm (K)": -0.12}
{"smiles": "O=C(Nc1ccccc1)C1CCN(C(=O)c2cccc(S(=O)(=O)NCc3ccccc3)c2)CC1", "TSA(with NAD+) / Primary screening (TSA) / delta Tm (K)": -0.19}
{"smiles": "COC(C)CCN", "note": "(stereo not drawn)", "TSA(with NAD+) / Primary screening (TSA) / delta Tm (K)": -0.16}
{"smiles": "Cc1ccc(CN(C)CC(=O)Nc2ccc3c(c2)OCCCO3)cc1", "TSA(with NAD+) / Primary screening (TSA) / delta Tm (K)": -0.08}
{"smiles": "CC(C)Cc1ccc(C(NC(C)C(=O)Nc2ccc(C(N)=O)cc2)C(C)C)cc1", "note": "(stereo not drawn)", "TSA(with NAD+) / Primary screening (TSA) / delta Tm (K)": -0.13}
{"smiles": "CC(=O)Nc1ccc(C(=O)Nc2cccc(S(=O)(=O)NCc3ccco3)c2)s1", "TSA(with NAD+) / Primary screening (TSA) / delta Tm (K)": 0.02}
{"smiles": "CCc1cc2c(N3CCN(Cc4ccc5c(c4)OCO5)CC3)nc(C)nc2s1", "TSA(with NAD+) / Primary screening (TSA) / delta Tm (K)": -0.04}
{"smiles": "Cc1ccc(N(C)S(=O)(=O)c2cccc(C(=O)Nc3ccncc3)c2)cc1", "TSA(with NAD+) / Primary screening (TSA) / delta Tm (K)": -0.15}
{"smiles": "CN(C)c1ccc(C=C2C(=O)NC(=S)NC2=O)cc1", "TSA(with NAD+) / Primary screening (TSA) / delta Tm (K)": -0.21}
{"smiles": "COc1ccc(C(=O)OCC(=O)NC(Cc2ccccc2)C(C)=O)cc1S(=O)(=O)N1CCCC1", "note": "(stereo not drawn)", "TSA(with NAD+) / Primary screening (TSA) / delta Tm (K)": -0.01}
{"smiles": "Cc1ccc2nc(CSc3nnc(NCc4ccco4)s3)cc(=O)n2c1", "TSA(with NAD+) / Primary screening (TSA) / delta Tm (K)": -0.01}
{"smiles": "O=C(/C=C/c1ccc(S(=O)(=O)N2CCc3ccccc32)cc1)Nc1cccc(S(=O)(=O)NCc2ccco2)c1", "TSA(with NAD+) / Primary screening (TSA) / delta Tm (K)": 0.26}
{"smiles": "NC(=O)C1CCCN1Cc1nc2cc(Br)cnc2[nH]1", "note": "(stereo not drawn)", "TSA(with NAD+) / Primary screening (TSA) / delta Tm (K)": -0.19}
{"smiles": "CCOc1ccc2oc(C(=O)NN3C(C)CCCC3C)c(C)c2c1", "note": "(stereo not drawn)", "TSA(with NAD+) / Primary screening (TSA) / delta Tm (K)": -0.11}
{"smiles": "CCN(CC(=O)OC(C)C(=O)NC(N)=O)Cc1ccc(Cl)cc1", "note": "(stereo not drawn)", "TSA(with NAD+) / Primary screening (TSA) / delta Tm (K)": -0.09}
{"smiles": "CC(Sc1nc(N)nc(N)n1)C(=O)N1CCOCC1", "note": "(stereo not drawn)", "TSA(with NAD+) / Primary screening (TSA) / delta Tm (K)": -0.02}
{"smiles": "CCN(CC)C(CNC(=O)CNC(=O)c1ccoc1C)c1ccco1", "note": "(stereo not drawn)", "TSA(with NAD+) / Primary screening (TSA) / delta Tm (K)": 0.05}
{"smiles": "CN(c1ccccc1)S(=O)(=O)c1cccc(NC(=O)CCc2c[nH]c3ccccc23)c1", "TSA(with NAD+) / Primary screening (TSA) / delta Tm (K)": 0.32}
{"smiles": "O=C(Nc1cccc(S(=O)(=O)NCc2ccco2)c1)c1ccc(COc2ccccc2)o1", "TSA(with NAD+) / Primary screening (TSA) / delta Tm (K)": 0.06}
{"smiles": "COc1ccc(CCNC(=O)c2ccccc2NS(=O)(=O)CC23CCC(CC2=O)C3(C)C)cc1", "note": "(stereo not drawn)", "TSA(with NAD+) / Primary screening (TSA) / delta Tm (K)": -0.01}
{"smiles": "O=C(NCc1ccccc1)/C(=C/c1ccc(OCc2ccccc2)cc1)c1nc2ccccc2[nH]1", "TSA(with NAD+) / Primary screening (TSA) / delta Tm (K)": 0.19}
{"smiles": "N#Cc1ccc(CN2CCC(CCc3ccc(O)cc3)CC2)c(F)c1", "TSA(with NAD+) / Primary screening (TSA) / delta Tm (K)": -0.24}
{"smiles": "NC(=O)c1ccc(S(=O)(=O)NNC(=O)c2cc3c(s2)CCCCC3)cc1", "TSA(with NAD+) / Primary screening (TSA) / delta Tm (K)": -0.03}
{"smiles": "CC(OC(=O)c1c2ccccc2cc2ccccc12)C(=O)c1ccccc1", "note": "(stereo not drawn)", "TSA(with NAD+) / Primary screening (TSA) / delta Tm (K)": -0.03}
{"smiles": "O=C(CCc1nc2ccccc2s1)Nc1ccc(N2CCN(Cc3ccccc3)CC2)cc1", "TSA(with NAD+) / Primary screening (TSA) / delta Tm (K)": 0.06}
{"smiles": "CC(OC(=O)Cc1coc2cc(O)ccc12)C(=O)Nc1ccc(C(N)=O)cc1", "note": "(stereo not drawn)", "TSA(with NAD+) / Primary screening (TSA) / delta Tm (K)": -0.14}
{"smiles": "CNC(=O)c1ccc2[nH]c3c(c2c1)CCCC3", "TSA(with NAD+) / Primary screening (TSA) / delta Tm (K)": 0.25}
{"smiles": "CS/C(=N/S(=O)(=O)c1cccs1)NS(=O)(=O)c1ccc(N)cc1", "TSA(with NAD+) / Primary screening (TSA) / delta Tm (K)": -0.14}
{"smiles": "Cc1ccc(C(=O)NNC(=O)c2ccc(S(=O)(=O)N3CCCC3)cc2)cc1", "TSA(with NAD+) / Primary screening (TSA) / delta Tm (K)": -0.09}
{"smiles": "Cc1nn(-c2ccccc2)c(C)c1NC(=O)COC(=O)c1ccc2[nH]c(C)c(C)c2c1", "TSA(with NAD+) / Primary screening (TSA) / delta Tm (K)": -0.08}
{"smiles": "NC(=O)c1ccc(C(=O)NC2CCN(C(=O)NC3CCCCC3)CC2)cc1", "TSA(with NAD+) / Primary screening (TSA) / delta Tm (K)": 0.08}
{"smiles": "O=C(CC12CC3CC(CC(C3)C1)C2)NNC(=O)[C@H](Cc1ccccc1)N1C(=O)c2ccccc2C1=O", "TSA(with NAD+) / Primary screening (TSA) / delta Tm (K)": 0.05}
{"smiles": "CCc1nnc(NC(=O)Nc2ccc(O)cc2C)s1", "TSA(with NAD+) / Primary screening (TSA) / delta Tm (K)": -0.11}
{"smiles": "Cc1nc2cc(C(=O)NCc3nnc4ccccn34)ccc2n1-c1ccccc1", "TSA(with NAD+) / Primary screening (TSA) / delta Tm (K)": -0.05}
{"smiles": "CC(C)[C@H](NC(=O)Cc1cccc2ccccc12)C(=O)OCC(=O)NC12CC3CC(CC(C3)C1)C2", "TSA(with NAD+) / Primary screening (TSA) / delta Tm (K)": 0.01}
{"smiles": "C#C[C@]1(O)CC[C@H]2[C@@H]3CCC4=CC(=O)CC[C@@H]4[C@H]3CC[C@@]21CC", "TSA(with NAD+) / Primary screening (TSA) / delta Tm (K)": -0.23}
{"smiles": "Cc1nnc(CNC(=O)c2cc(-c3ccccc3)nc3c(C(N)=O)ncn23)s1", "TSA(with NAD+) / Primary screening (TSA) / delta Tm (K)": -0.13}
{"smiles": "NS(=O)(=O)CCNc1ncnc2ccsc12", "TSA(with NAD+) / Primary screening (TSA) / delta Tm (K)": 0.08}
{"smiles": "Cc1cc(C(=O)COC(=O)c2cc(S(=O)(=O)N3CCCCC3)ccc2N2CCCCC2)c(C)n1CC1CCCO1", "note": "(stereo not drawn)", "TSA(with NAD+) / Primary screening (TSA) / delta Tm (K)": -0.05}
{"smiles": "Nc1ccc(NC=C2C(=O)CC(c3ccccc3)CC2=O)cc1", "note": "(stereo not drawn)", "TSA(with NAD+) / Primary screening (TSA) / delta Tm (K)": 0.01}
